This data set concerns TBP + TFB. Description: EMSA. As to conditions: no TFB-RF1, no shift at 24 nM TFB, no strong shift at 96 nM TFB; EMSA: 15 ul, 70 C for 15 min, buffer per Ochs et al. 2012 (not given), 8% native PAGE; recombinant protein; label: Cy5 on forward primer; probe letters rebuilt from the primers and the genome. In general terms: In EMSA bound probe runs differently from free probe, usually more slowly.

Construct, isoform or probe ends are uncertain for at least one entry. The comparison behind a weaker result is the experiment's own reference, which may not be listed here.

Take “ACTATTTTGGAAATTAGTTAAAGCTTCTAAAAAAGCTTGTTGTTTTTCTGGGATTCAGACGGATTATTTACAAAAAAGGAAAGGAATATTGGTAGCTATA (double strand) [pf1011/1012 promoter region (EMSA)]”: the binding result was “binds more weakly”.

These data come from publication PMC5937170.
